Screen size: about 330,000 compounds; about 7,700 (2.3%) were called active. This list was built around the results that the source calls inconclusive (neither active nor inactive); the mix of calls is not that of the screen. Calls come from the whole dose curve; as a rule, active = well fitted inhibition curve with a large enough effect; inconclusive = small, poorly fitted or top-dose-only effect, or effect the other way; inactive = flat fitted curve, though single readings scatter. Where the call is inconclusive, the potency comes from a doubtful curve fit.
Test: qHTS screen for small molecules that inhibit ELG1-dependent DNA repair in human embryonic kidney (HEK293T) cells expressing luciferase-tagged ELG1; note: nearly all actives have a fitted effect of over 55% in size
Details: HEK293T ELG1-luciferase reporter, luminescence, 16 h, DNA damage induced by 5-fluorouridine; series mostly up to 46.1 µM
Outline: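 Luminescence from the luciferase reporter, measured 30 min after ONE-Glo reagent at room temperature, was the read-out. Beforehand, 2,000 cells per well were exposed for 16 hr at 37 °C to 5-fluorouridine together with compound or vehicle.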
Potency is the fitted concentration of half-maximal effect.

| Compound | Potency |
| --- | --- |
| COC(=O)c1sc(NC(=O)c2ccc(C)o2)nc1C | inconclusive: 8.2 µM [activator, partial curve] |
| O=C(CN1C(=O)NC(c2ccccc2)(c2ccccc2)C1=O)NCc1ccc(F)cc1 | inconclusive: 8.2 µM [inhibitor, partial curve, poor fit] |
| COc1cc2c(cc1OC)CN(C(=O)/C=C/c1ccccc1[N+](=O)[O-])CC2 | active: 13 µM |
| COc1cc(NS(=O)(=O)c2ccc(C)cc2)ccc1-n1cnnn1 | inactive |
| COc1ccc(NS(=O)(=O)c2ccc(C(=O)N3CCN(Cc4ccccc4)CC3)cc2)cc1 | inconclusive: 9.2 µM [inhibitor, partial curve] |
| Nc1nc(SCC(=O)Nc2cccc(F)c2)n[nH]1 | inconclusive: 25.9 µM [activator, single point] |
| Cc1cccc(N2CCN(C(=O)CCN3C(=S)NC(C)(C)CC3C)CC2)c1C (stereo not drawn) | inconclusive: 18.3 µM [inhibitor, single point] |
| CCC(=O)N1CCc2cc(S(=O)(=O)NCCC(=O)N3CCN(c4cccc(OC)c4)CC3)ccc21 | inactive |
| COC(=O)c1cn(NC(=O)c2ccc([N+](=O)[O-])cc2Cl)c(=O)c2ccccc12 | inconclusive: 18.3 µM [inhibitor, partial curve, poor fit] |
| COc1ccc(COc2ccccc2C(=O)NCc2ccccc2)cc1F | active: 25.9 µM |
| CCCSc1nnc(-c2c[nH]c3ccccc23)n1C | inconclusive: 16.4 µM [activator, partial curve, poor fit] |
| CCOc1ccc(C2C(C(=O)c3cccs3)=C(O)C(=O)N2CCCn2ccnc2)cc1 (stereo not drawn) | inconclusive: 20.6 µM [activator, partial curve, poor fit] |
| COC(=O)c1ccc(N2CCN(C(C)=O)CC2)c(NC(=O)COc2ccccc2C)c1 | inconclusive: 20.6 µM [inhibitor, single point] |
| Cc1cc(=O)oc2cc(NC(=O)c3c(Cl)cnn3C)ccc12 | inactive |
| Cc1ccc(S(=O)(=O)NC(C)C(=O)NC2CC2)cc1 (stereo not drawn) | inactive |
| CC(C)N(C(=O)c1ccc(C(=O)Nc2ccc([N+](=O)[O-])cc2)cc1)C(C)C | inconclusive: 2.06 µM [inhibitor, single point] |
| O=C(NCc1ccc(F)cc1)c1cc(-c2cccs2)on1 | inconclusive: 23.1 µM [activator, single point] |
| COc1c(C)cc(C(=O)C2CCCN(Cc3cccc4nccnc34)C2)cc1C (stereo not drawn) | inconclusive: 29.1 µM [inhibitor, partial curve, poor fit] |
| CCNC(=O)C(=O)Nc1ccc(OC)c(Cl)c1 | inconclusive: 20.6 µM [activator, single point] |
| CCOC(=O)N1CCN(c2ncnc3scc(-c4ccccc4)c23)CC1 | inconclusive: 25.9 µM [inhibitor, partial curve, poor fit] |
| O=C(COC(=O)CN1C(=O)c2ccccc2C1=O)Nc1ncc(Cl)cc1Cl | inconclusive: 9.2 µM [activator, partial curve, poor fit] |
| CC1CCc2c(sc3ncnc(SC(C)C(=O)NCC4CCCO4)c23)C1 (stereo not drawn) | inactive |
| COc1cccc(C2CC(c3ccc(Cl)cc3Cl)Nc3nc(N)nn32)c1 (stereo not drawn) | inactive |

An excerpt from above in order of count of non-hydrogen atoms, low to high:

| Compound | Potency |
| --- | --- |
| COc1cc2c(cc1OC)CN(C(=O)/C=C/c1ccccc1[N+](=O)[O-])CC2 | active: 13 µM |
| O=C(CN1C(=O)NC(c2ccccc2)(c2ccccc2)C1=O)NCc1ccc(F)cc1 | inconclusive: 8.2 µM [inhibitor, partial curve, poor fit] |
| CCC(=O)N1CCc2cc(S(=O)(=O)NCCC(=O)N3CCN(c4cccc(OC)c4)CC3)ccc21 | inactive |

Continued:

| Compound | Potency |
| --- | --- |
| Cc1cc(C)c(NC(=S)NC(=O)c2c(Cl)c(C)nn2C)c([N+](=O)[O-])c1 | inactive |
| Cc1cc(NS(=O)(=O)c2ccc(NC(=O)c3cc(-c4ccccc4Cl)nc4ccccc34)cc2)no1 | inactive |
| Cc1ccc(OCc2cc(C(=O)NCCn3cccn3)no2)cc1C | inconclusive: 20.6 µM [activator, single point] |
| O=C(O)C(Cc1c[nH]c2ccccc12)N1CCS(=O)(=O)CC1 (stereo not drawn) | inactive |
| COc1ccc(S(=O)(=O)NCCc2ccco2)cc1OC | inconclusive: 18.3 µM [activator, single point] |
| Cn1c(SCC(=O)N/N=C/c2cccs2)nc2ccccc21 | inactive |
| Cc1ccc(N2CC(C(=O)Nc3ccc(S(=O)(=O)Nc4ncccn4)cc3)CC2=O)cc1C (stereo not drawn) | inconclusive: 32.6 µM [activator, partial curve, poor fit] |
| Cc1c(NC(=O)c2cc(-c3ccc(Cl)s3)nc3ccccc23)c(=O)n(-c2ccccc2)n1C | inconclusive: 9.2 µM [inhibitor, partial curve] |
| O=C1CCCC/C1=N\Nc1ccc(OCc2ccccc2)cc1 | inconclusive: 16.4 µM [activator, single point] |
| C/C(=N\NC(=O)c1nn(C)cc1Br)c1cccc(NC(=O)C2CCCC2)c1 | inconclusive: 20.6 µM [inhibitor, single point] |
| Cc1ncoc1C(=O)N1CCc2c([nH]c3ccccc23)C1C1CCCCC1 (stereo not drawn) | inconclusive: 14.6 µM [activator, single point] |
| Cc1ccc(NC(=O)CN(C)C(=O)c2cccc(S(=O)(=O)N3CCCC3)c2)cc1 | inactive |
| COC(=O)c1ccccc1NC(=O)CN1CCC(C(=O)c2ccc3c(c2)OCCO3)CC1 | inconclusive: 29.1 µM [inhibitor, single point] |
| CC(C)c1ccc(NC(=O)CSc2nnc(CN3CCOCC3)n2C)cc1 | inactive |
| Cc1ccc(N2CCN(c3ccc(C)cc3)C2c2ccncc2)cc1 | inconclusive: 22.4 µM [inhibitor, single point] |
| Cc1c(C(c2ccc(C(=O)O)cc2)c2c(C)n(C)n(-c3ccccc3)c2=O)c(=O)n(-c2ccccc2)n1C | inactive |
| O=C(NNC(=O)C1C2CCC(C2)C1C(=O)O)c1ccc(Br)o1 (stereo not drawn) | inactive |
| Cc1ccc(NC(=O)c2cc(S(=O)(=O)NCCC3=CCCCC3)ccc2F)cc1F | inconclusive: 3.26 µM [inhibitor, partial curve, poor fit] |
| Cc1ccc(NC(=S)Nc2cccc3ccccc23)cc1F | inconclusive: 23.1 µM [activator, partial curve] |
| Cc1cc(C)c(COCc2cc(/C=N/O)c(C)cc2C)cc1/C=N/O | inconclusive: 25.9 µM [inhibitor, single point] |
| COc1ccc(OC)c(NC(=O)CSc2ccc3nnc(-c4cccnc4)n3n2)c1 | inactive |
| COC(=O)c1c(NC(=O)Cc2ccccc2)sc2c1C(C(=O)OC)CC2 (stereo not drawn) | inconclusive: 29.1 µM [inhibitor, single point] |
| Cc1ccc(NC(=O)C2C3CCC(O3)C2C(=O)O)c(Br)c1 (stereo not drawn) | inconclusive: 16.4 µM [activator, partial curve, poor fit] |

Reprinted at random: 2 compounds from above

| Compound | Potency |
| --- | --- |
| C/C(=N\NC(=O)c1nn(C)cc1Br)c1cccc(NC(=O)C2CCCC2)c1 | inconclusive: 20.6 µM [inhibitor, single point] |
| Cc1cc(C)c(COCc2cc(/C=N/O)c(C)cc2C)cc1/C=N/O | inconclusive: 25.9 µM [inhibitor, single point] |

Next part:

| Compound | Potency |
| --- | --- |
| CN(C)c1ccc2c3c(ccc(N(C)C)c13)C(=O)OC2 | inconclusive: 18.3 µM [inhibitor, single point] |
| CCC1CCCCN1C(=O)CSc1nc2ncccc2[nH]1 (stereo not drawn) | inconclusive: 23.1 µM [activator, partial curve, poor fit] |
| CCOC(=O)CC(=O)CSc1nc2nc(C)cc(C)n2n1 | inactive |
| Cc1c2ccccc2nc2c(F)c(N(C)C)c(F)c(F)c12 | inconclusive: 16.4 µM [activator, partial curve] |
| O=C1NC(=S)N/C1=C\C=C\c1ccccc1 | inconclusive: 11.6 µM [activator, partial curve] |
| CCOC(=O)c1cnc(-c2ccccc2)nc1N(C)C | inconclusive: 14.6 µM [activator, partial curve] |
| O=C(c1ccccc1F)N1CCN(c2ccc([N+](=O)[O-])c(NCc3cccnc3)c2)CC1 | inconclusive: 29.1 µM [inhibitor, single point] |
| Cc1cccc(NC(=O)C2C3C=CC(O3)C2C(=O)O)c1 (stereo not drawn) | inactive |
| CCCNC(=O)c1ccc(N2CCC3(CC2)CC(c2ccccc2)=NO3)c(NC(=O)Cc2ccc(F)cc2)c1 | active: 20.6 µM |
| CC(C)(C)c1ccc(C(=O)c2c[nH]c(C(=O)NCC3CCCO3)c2)cc1 (stereo not drawn) | inactive |
| COc1ccc(S(=O)(=O)N(C)C[C@@H]2Oc3ccc(NS(C)(=O)=O)cc3C(=O)N([C@@H](C)CO)C[C@H]2C)cc1 | inconclusive: 8.2 µM [inhibitor, partial curve, poor fit] |
| Cc1ccc(Cl)cc1N1CCN(C(=O)C2CCN(S(=O)(=O)c3c(C)nn(C)c3C)CC2)CC1 | active: 18.4 µM |
| COc1ccc2nc(NC(=O)CSc3nnc(N)s3)sc2c1 | inconclusive: 4.61 µM [activator, full curve] |
| Cc1c(Cl)cccc1NC(=S)NCc1ccco1 | inconclusive: 20.6 µM [inhibitor, partial curve] |
| CC1(C)Cc2c(sc(NC(=O)C(=O)N3CCCC3)c2C(=O)O)CO1 | inconclusive: 18.3 µM [activator, single point] |
| Cc1cc(Nc2nc3ccccc3nc2Cl)n(-c2ccccc2C)n1 | inactive |
| CN1CCCN(C(=O)c2ccc(Cl)c(S(=O)(=O)N(C)c3ccccc3)c2)CC1 | inactive |
| COc1ccc(NC(=O)c2cccc(OS(=O)(=O)N(C)C)c2)cc1 | inconclusive: 1.64 µM [activator, partial curve] |
| C[C@@H]1NC(=O)N(CCCn2ccnc2)C1=O | inactive |
| O=C(NCC(F)(F)F)c1nn(Cc2ccccc2)c(=O)c2ccccc12 | inconclusive: 23.1 µM [inhibitor, partial curve, poor fit] |
| CC(C)Cn1c(SCC(N)=O)nnc1-c1cccc(S(=O)(=O)N2CCOCC2)c1 | inconclusive: 25.9 µM [activator, partial curve, poor fit] |
| Cc1cc(C(=O)COC(=O)C2CC2)c(C)n1-c1ccc(F)cc1 | inconclusive: 16.4 µM [activator, partial curve] |

Reference: PubChem BioAssay AID504467 (National Center for Advancing Translational Sciences (NCATS), 2011)
